The target of this test is Glucose-6-phosphate dehydrogenase (G6PD), 3×flag-tagged, overexpressed in SBC2 cells (UniProt P11413). As to the kind of experiment: affinity purification with mass spectrometry; whole cell lysates of SBC2 cells with G6PD overexpression, supernatant incubated with anti-Flag antibody (mouse) or anti-IgG antibody (mouse) for 12 h at 4 °C, washed three times with TBS; mass spectrometric analysis by PTM BIOLAB.

The chains behind the UniProt entries cited, without tags or fusion partners.
UniProt P11413: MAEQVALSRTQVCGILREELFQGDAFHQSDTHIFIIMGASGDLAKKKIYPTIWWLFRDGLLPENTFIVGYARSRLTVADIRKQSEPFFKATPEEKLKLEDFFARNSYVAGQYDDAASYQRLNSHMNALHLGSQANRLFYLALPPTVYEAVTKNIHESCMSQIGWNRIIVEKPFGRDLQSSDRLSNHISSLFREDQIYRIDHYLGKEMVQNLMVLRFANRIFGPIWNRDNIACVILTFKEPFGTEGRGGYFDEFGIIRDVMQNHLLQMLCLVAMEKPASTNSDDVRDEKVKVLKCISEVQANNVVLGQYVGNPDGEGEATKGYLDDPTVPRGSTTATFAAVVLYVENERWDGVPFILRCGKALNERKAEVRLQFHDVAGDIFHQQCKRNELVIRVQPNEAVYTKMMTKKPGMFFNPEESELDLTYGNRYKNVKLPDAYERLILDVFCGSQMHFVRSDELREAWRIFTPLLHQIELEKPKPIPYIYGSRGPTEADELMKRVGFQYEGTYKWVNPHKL
UniProt P11142: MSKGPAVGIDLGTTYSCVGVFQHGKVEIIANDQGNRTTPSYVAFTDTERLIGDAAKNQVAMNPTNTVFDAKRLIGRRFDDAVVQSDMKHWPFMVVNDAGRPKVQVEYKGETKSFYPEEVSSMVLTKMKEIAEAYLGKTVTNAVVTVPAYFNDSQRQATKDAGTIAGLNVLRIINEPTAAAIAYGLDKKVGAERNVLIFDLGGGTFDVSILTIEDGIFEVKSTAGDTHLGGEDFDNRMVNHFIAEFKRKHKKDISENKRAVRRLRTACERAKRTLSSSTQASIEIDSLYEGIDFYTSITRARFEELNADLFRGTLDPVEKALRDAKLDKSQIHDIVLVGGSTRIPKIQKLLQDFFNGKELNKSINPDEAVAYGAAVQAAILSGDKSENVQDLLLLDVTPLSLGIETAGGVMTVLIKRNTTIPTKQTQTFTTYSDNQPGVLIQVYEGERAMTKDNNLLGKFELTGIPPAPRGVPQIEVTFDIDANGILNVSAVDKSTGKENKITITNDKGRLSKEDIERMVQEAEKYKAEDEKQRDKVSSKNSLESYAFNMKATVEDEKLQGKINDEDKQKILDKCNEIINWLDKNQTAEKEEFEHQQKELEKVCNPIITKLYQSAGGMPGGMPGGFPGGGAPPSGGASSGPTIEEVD

These are yes or no findings as the source states them, for the method shown. Binding seen in cells or lysates may run through a third protein. These calls come from enrichment with a bait or labelling near it, and not all partners need be listed.

In the case of HSPA8/HSC70 (from UniProt P11142 1-646), the binding result is “binds”.

These data come from article PMC10558571.
